Experimental data: PubChem BioAssay AID540275 (National Center for Advancing Translational Sciences (NCATS), 2011)
Out of some 320,000 compounds screened, about 620 (0.19%) were called active. Inconclusive means that the source gave no clear call. Such entries were picked first, then a sample of the others. Cut-off read from the data, not from the text of the source: active = activation above about 80%; inconclusive = between about 30% and that limit; inactive = weaker than that.

By UniProt entry, the sequences of proteins in these tests, tags left out.
UniProt Q8NER1, whole entry, looked up: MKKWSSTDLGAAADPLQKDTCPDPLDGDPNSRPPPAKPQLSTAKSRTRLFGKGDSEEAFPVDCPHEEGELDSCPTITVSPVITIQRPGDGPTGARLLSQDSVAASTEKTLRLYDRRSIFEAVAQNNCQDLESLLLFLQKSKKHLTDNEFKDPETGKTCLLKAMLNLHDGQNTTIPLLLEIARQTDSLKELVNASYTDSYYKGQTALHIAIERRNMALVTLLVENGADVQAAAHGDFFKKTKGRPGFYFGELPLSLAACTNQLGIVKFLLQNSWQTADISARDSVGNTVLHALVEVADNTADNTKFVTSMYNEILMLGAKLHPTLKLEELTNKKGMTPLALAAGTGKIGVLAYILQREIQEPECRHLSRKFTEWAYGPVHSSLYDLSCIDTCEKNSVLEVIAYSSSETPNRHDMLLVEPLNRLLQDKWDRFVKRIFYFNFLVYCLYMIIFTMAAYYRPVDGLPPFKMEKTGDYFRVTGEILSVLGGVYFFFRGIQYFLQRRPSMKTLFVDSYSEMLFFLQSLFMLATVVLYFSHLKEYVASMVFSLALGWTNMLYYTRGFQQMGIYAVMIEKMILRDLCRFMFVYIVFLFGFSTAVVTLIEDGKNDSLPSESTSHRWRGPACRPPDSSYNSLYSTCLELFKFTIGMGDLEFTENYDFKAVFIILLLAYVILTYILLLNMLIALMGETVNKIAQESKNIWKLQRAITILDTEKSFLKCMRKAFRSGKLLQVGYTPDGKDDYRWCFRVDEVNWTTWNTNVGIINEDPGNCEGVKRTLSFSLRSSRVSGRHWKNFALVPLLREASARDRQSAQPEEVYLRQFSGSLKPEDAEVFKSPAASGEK

These compounds were tested against Transient receptor potential cation channel subfamily V member 1 (Homo sapiens) (UniProt Q8NER1) (assay: HTS Assay for Compounds that Act as Agonists of the Vanilloid Receptor 1). Conditions: TRPV1-expressing cells, Fluo-8 calcium influx, agonist mode; at 8.33 µM, hits give high values.
Outline: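 Cells expressing TRPV1 were dye-loaded with Fluo-8 and read kinetically: 10 s baseline, 3 min after compound (agonist portion), then 2 min after EC20 capsaicin (allosteric enhancer portion). Calcium-bound dye fluorescence at 480/520 nm.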
Note: 0% is about no effect.

SMILES | activation
Cc1ccc(OCC(=O)NC2CCCCCC2)cc1C | inconclusive: 56.5%
Cc1ccc(C(OCC(O)CNCc2ccc(F)cc2)c2ccccc2)cc1 (stereo not given) | inactive: 3.89%
COc1ccc(-n2c(-c3ccccc3)nnc2-c2ccc(Cl)cc2)cc1 | inactive: 9.64%
Cc1ccc(C(=O)NCC(=O)Nc2ncccc2C)s1 | inactive: -2.47%
Cc1ccc(NC(=O)c2cccc(F)c2)cc1S(=O)(=O)N1CCCCCC1 | inconclusive: 53.7%
N#Cc1ccc(CN2CCN(C(=O)c3ccc(S(=O)(=O)N4CCCCCC4)cc3)CC2)cc1 | inactive: 3.4%
Fc1ccc(CNC(=S)Nc2ccccc2Cl)cc1 | inconclusive: 47.5%
COc1ccc(CC(C)CC(=O)NCCc2ccc(OC)c(OC)c2)cc1 (stereo not given) | inconclusive: 39.5%
Cc1cc(C)cc(NC(=O)N2CCN(Cc3ccc4c(c3)OCO4)CC2)c1 | inconclusive: 62.4%
O=C(N/N=C/c1ccncc1)c1ccccn1 | inactive: 0.423%
N#Cc1c(N2CCN(C(=O)c3ccco3)CC2)nc(-c2ccccc2)c2c1CCCC2 | inconclusive: 62.8%
Cc1ccc(OCCCC(=O)NC2CCCCC2)cc1 | inconclusive: 47.2%
CNC(=O)c1ccccc1NC(=O)c1ccc(C)c(S(=O)(=O)N2CCCCC2)c1 | inconclusive: 40.2%
COc1ccc(-n2ncc(C(C)NS(=O)(=O)c3cccs3)c2C)cc1 (stereo not given) | inactive: -5.05%
Cc1ccc(N2C(=O)N(CC(=O)N3c4ccccc4CC3C)C(=O)C2C)cc1 (stereo not given) | inconclusive: 40.8%
C[C@@H]1C(NC(=O)c2ccccc2)CC2CC1C2(C)C (stereo not given in full) | inconclusive: 30.5%
CC(C)CN1CCC(Oc2cccc(C(=O)NCCc3ccccc3)c2)CC1 | inconclusive: 33.1%
O=C(NC1CCCCC1)C(c1ccc2ncccc2c1)N(Cc1ccco1)C(=O)c1ccc2c(c1)OCCO2 (stereo not given) | inconclusive: 41.1%
O=C(COC(=O)Cc1cccc(F)c1)NCCc1ccccc1 | inconclusive: 38%
CCCCNC(=O)CCC(=O)Nc1ccc2nc(N3CCC(C)CC3)cc(C)c2c1 | inactive: -2.35%
O=C(CN1C(=O)NC2(CCCC2)C1=O)Nc1ccc(C(F)(F)F)cc1 | inconclusive: 34.7%
CCCC(NC(=S)NCC1CCCO1)C12CC3CC(CC(C3)C1)C2 (stereo not given) | inconclusive: 46.5%
Cc1ccc(CSCC(=O)Nc2ccc(F)cc2)cc1 | inconclusive: 45.2%

An excerpt of these results, as a markdown table.

| SMILES | activation |
| --- | --- |
| Cc1ccc(N2C(=O)N(CC(=O)N3c4ccccc4CC3C)C(=O)C2C)cc1 (stereo not given) | inconclusive: 40.8% |
| C[C@@H]1C(NC(=O)c2ccccc2)CC2CC1C2(C)C (stereo not given in full) | inconclusive: 30.5% |
| CC(C)CN1CCC(Oc2cccc(C(=O)NCCc3ccccc3)c2)CC1 | inconclusive: 33.1% |

(cont.)

SMILES | activation
CCCNC(=O)N1CCN(c2nc(C(C)C)c3c(c2C#N)CC(C)(C)OC3)CC1 | inconclusive: 57.7%
C=CCSc1nnc(CSc2nc3sc4c(c3c(=O)[nH]2)CCCC4)n1-c1ccccc1 | inactive: 13.6%
O=C(Nc1cccc(O)c1)c1ccc(C(=O)c2ccccc2)o1 | inconclusive: 63.6%
S=C(Nc1ccc(Cl)cc1Cl)NC1CCN(Cc2ccccc2)CC1 | inactive: 0.495%
O=C1c2ccccc2C(=O)N1CCc1csc(-c2ccc(F)cc2)n1 | inconclusive: 42.4%
CC(C)Sc1nc2ccc(Br)cc2[nH]1 | inactive: 10.5%
CCOC(=O)C1CCCN(Cc2cc(=O)oc3cc(C)c(C(C)C)cc23)C1 (stereo not given) | inconclusive: 36.4%
O=C(c1cnn(C(=O)COc2ccc(Cl)cc2)c1)c1ccccc1O | inconclusive: 37.6%
CC(Sc1nc2ccccc2s1)C(=O)Nc1ccc2c(c1)OCO2 (stereo not given) | inconclusive: 31.8%
Cc1cc(Br)cnc1NC(=S)Nc1ccc(F)cc1F | inactive: 1.91%
Nc1ccccc1Oc1ccc2ccccc2c1 | inconclusive: 38.3%
CS(=O)(=O)N1CCC(C(=O)N2CCN(C(c3ccccc3)c3ccccc3)CC2)CC1 | inactive: 17.1%
COc1ccc(C(=O)Nc2ccc(OC)c([N+](=O)[O-])c2)cc1Br | inconclusive: 32.5%
Cc1ccc(NC(=O)N2CCN(C/C=C/c3ccccc3)CC2)cc1 | inconclusive: 59%
Cc1cccc(OCCC(=O)Nc2ccc(F)c(Cl)c2)c1 | inconclusive: 35.2%
Cc1cccc(OCCCC(=O)Nc2ccc(N3CCOCC3)cc2)c1 | inconclusive: 53.6%
O=C(C1COc2ccccc2O1)N1CCN(Cc2ccc(Br)cc2F)CC1 (stereo not given) | inconclusive: 37.2%
Cn1nccc1C(=O)NC1CCCc2c1cnn2-c1ccccc1F (stereo not given) | inconclusive: 32.2%
CCOC(=O)c1c(C)oc2c1c1c(c3ccccc32)OCN(Cc2ccccn2)C1 | inconclusive: 44.5%
O=C(N/N=C/c1cccc(O)c1)c1cc(C2CC2)nc2ccccc12 | inconclusive: 42.2%
CCOC(=O)[C@H]1[C@H]2COc3ccc(C)cc3[C@@H]2N2C(=O)c3cc(F)c(F)cc3NC(=O)[C@@]12C | active: 80.8%
Cc1cc(C(=S)N2CCOCC2)c(C)n1-c1ccc(F)cc1 | inactive: 8.6%
COc1ccc(-c2cn(Cc3ccc(C(N)=O)cc3)c(CCN)n2)cc1 | inactive: -6.21%

Arranged by length of the SMILES (falling): three of the compounds above
SMILES | activation
O=C(NC1CCCCC1)C(c1ccc2ncccc2c1)N(Cc1ccco1)C(=O)c1ccc2c(c1)OCCO2 (stereo not given) | inconclusive: 41.1%
CS(=O)(=O)N1CCC(C(=O)N2CCN(C(c3ccccc3)c3ccccc3)CC2)CC1 | inactive: 17.1%
COc1ccc(-n2c(-c3ccccc3)nnc2-c2ccc(Cl)cc2)cc1 | inactive: 9.64%

More structures follow.

SMILES | activation
CS(=O)(=O)c1cccc(C(=O)Nc2ccc(S(=O)(=O)N3CCCCC3)cc2)c1 | inconclusive: 37%
Cc1nc(-c2ccc(C(=O)Nc3ccccc3F)cc2)cs1 | inconclusive: 52.8%
O=C(Nc1ccc(F)cc1)/C(Cl)=C/c1ccccc1 | active: 83.2%
Cc1ccc(/C=C/C2=NN(C)C(=O)CC2)cc1 | inactive: 20.1%
COc1ccc(/C=C/c2cc(C(F)(F)F)[nH]c(=O)n2)cc1OC | inconclusive: 31.5%
CCOc1ccc2nc(SCC(=O)Nc3ccc4c(c3)OCO4)sc2c1 | inconclusive: 31.2%
O=C(NCc1ccccn1)c1cc(Cl)ccc1OCc1ccccc1 | inconclusive: 69.8%
Cc1ccc(C)c(Cn2nc(-c3ccccc3)ccc2=O)c1 | inconclusive: 61.7%
COc1ccc(C(=O)Nc2ccc(Cc3ccncc3)cc2)cc1Br | inconclusive: 51.4%
Cc1ccc(SCCC(=O)N/N=C/c2ccncc2)cc1 | inconclusive: 57.9%
COc1cc(N)c(Cc2nccc3cc(OC)c(OC)cc23)cc1OC | inactive: -1.11%
O=C(C1CCC1)N1CCN(c2ccnc3cc(Cl)ccc23)CC1 | inconclusive: 39.7%
O=[N+]([O-])c1ccc(COc2ccccc2/C=N/O)cc1 | inactive: -4.75%
COc1ccc(CN2C(=O)c3cccnc3C2Nc2ccc(C)cc2)cc1 (stereo not given) | inconclusive: 75.1%
CCN(CC)C(=O)CN(c1cc2c(cc1OC)oc1ccccc12)S(=O)(=O)c1ccccc1 | inconclusive: 36%
O=C(NCCSCc1ccccc1)c1ccc(Cl)c(S(=O)(=O)N2CCOCC2)c1 | inconclusive: 62.3%
COc1ccc(C(C(=O)NC(C)(C)C)N(C(=O)CNC(=O)c2cccs2)c2ccc(C(C)C)cc2)cc1OC (stereo not given) | inconclusive: 51%
COc1ccc(CNC(=O)N2CCc3ccccc3C2)cc1Cl | inconclusive: 51.3%
CC[N+]1=C(C)C(C)(C)c2cc(C)ccc21 | inactive: 1.16%
O=C(Nc1ccc(Br)cc1)Nc1ccccc1Cl | inconclusive: 67.9%
CN(CC(=O)Nc1ccccc1Cl)C(=O)c1cccc(-n2cccc2)c1 | inactive: 7.71%
O=C(CSc1nc2c(c(C(F)(F)F)n1)CCc1ccccc1-2)NCc1ccc(F)cc1 | inconclusive: 37.1%
O=C(Nc1cccs1)Nc1ccccc1Br | inconclusive: 52.4%

SMILES | activation
Cc1ccc(S(=O)(=O)N(C)C)cc1NC(=O)CSc1nc2ccccc2[nH]1 | inconclusive: 31.2%
COc1ccc(C2(C)NC(=O)N(CC(=O)Nc3ccc4c(c3)CCC4)C2=O)cc1OC (stereo not given) | inconclusive: 34.6%
CC1CCCN(C(=O)CN2C(=O)CSc3ccc(S(=O)(=O)N4CCOCC4)cc32)C1 (stereo not given) | inactive: 3.92%
O=C(OCCN1C(=O)c2cccc3c(N4CCOCC4)ccc(c23)C1=O)c1cccc(Cl)c1 | inconclusive: 35.7%
Cc1cc(C)nc(N2CCCC(C(=O)NCC(c3ccccc3)c3ccccc3)C2)n1 (stereo not given) | inconclusive: 41.8%
Cc1ccc(NC(=O)C2COc3ccccc3O2)cc1S(=O)(=O)N1CCCCC1 (stereo not given) | inconclusive: 33.6%
O=C(Nc1ccc2[nH]c(=O)[nH]c2c1)c1ccc(Cl)c(Cl)c1 | inconclusive: 45.2%
S=C(NCc1cccnc1)Nc1ccc(Cl)cc1Cl | inconclusive: 47.8%
CCCCN(CCCC)C(=O)C1(P(=O)(c2ccccc2)c2ccccc2)CCC1 | inconclusive: 54.2%
CN1CCN(c2ccc(NC(=O)COc3ccc4ccccc4c3)cc2)CC1 | inactive: 21.2%
COc1ccc(-c2oc3cccnc3c2/C=C/c2ccc(OC)c(OC)c2)cc1 | inactive: 7.32%
CC(=O)Nc1ccc(NC(=O)C(C)Sc2nc3ccccc3c(=O)n2Cc2ccco2)cc1 (stereo not given) | inconclusive: 54.9%
O=C(Nc1cc(S(=O)(=O)N2CCOCC2)ccc1Cl)c1cc2ccccc2o1 | inconclusive: 57.5%
Cc1ccc(C(C)C)c(OCC(=O)NNC(=O)CC2OC(=O)c3ccccc32)c1 (stereo not given) | inconclusive: 36.1%
COc1cccc(/C=N/Nc2ccc([N+](=O)[O-])cn2)c1O | inactive: -0.787%
Cc1cnc(C)c(N2CCN(Cc3cn(C)nc3-c3cccc(Cl)c3)CC2)n1 | inconclusive: 30.2%
CC(=O)c1ccc(N2CCN(C(=S)Nc3cc(C)ccc3C)CC2)cc1 | inconclusive: 40.9%
CCC(C)(C)NC(=O)CCn1c(-c2ccccc2)cc(C(C)=O)c1C | inconclusive: 51%
Cc1ccc2oc(=O)c3cnn(CC(=O)NCCN(C)C)c3c2c1 | inactive: -2.03%
O=C(Nc1ccc(N2CCOCC2)cc1)c1ccc2c(c1)OCO2 | inconclusive: 61.7%
O=c1nc(N2CCOCC2)ccn1-c1nc(-c2ccccc2)oc1-c1ccccc1 | inconclusive: 34.8%
